In paper PMC4133157 one finds binding data, which are given here for one substance.

Experiment [1] has as its target T1, 3XFLAG::EVA-1 (HEK293T) (C. elegans) (UniProt Q9XU98).
T1 sequence: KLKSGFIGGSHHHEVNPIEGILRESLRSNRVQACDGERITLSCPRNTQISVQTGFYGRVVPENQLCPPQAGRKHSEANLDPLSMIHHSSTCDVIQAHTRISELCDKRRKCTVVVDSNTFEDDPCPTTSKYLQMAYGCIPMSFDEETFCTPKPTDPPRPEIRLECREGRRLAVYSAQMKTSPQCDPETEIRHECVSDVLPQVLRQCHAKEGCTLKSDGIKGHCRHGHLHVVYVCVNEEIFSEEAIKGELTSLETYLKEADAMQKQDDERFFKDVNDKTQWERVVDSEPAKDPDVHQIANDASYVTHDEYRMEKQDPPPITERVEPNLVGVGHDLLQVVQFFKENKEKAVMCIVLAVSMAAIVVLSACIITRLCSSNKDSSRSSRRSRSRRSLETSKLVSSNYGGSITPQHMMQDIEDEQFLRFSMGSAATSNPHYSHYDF
Kind of experiment: co-IP; FLAG-tagged receptor on transfected HEK293T cells incubated with 10x concentrated conditioned medium holding the HA- and Gaussia luciferase-tagged ligand, 4 hours at 4°C; cells lysed in TNTE buffer (0.5% Triton X-100), anti-FLAG immunoprecipitation, luciferase activity of the washed immunoprecipitate, normalised to receptor level.

Experiment [2] addresses T2, 3XFLAG::UNC-40 (HEK293T) (C. elegans) (UniProt G5EF96).
T2 sequence: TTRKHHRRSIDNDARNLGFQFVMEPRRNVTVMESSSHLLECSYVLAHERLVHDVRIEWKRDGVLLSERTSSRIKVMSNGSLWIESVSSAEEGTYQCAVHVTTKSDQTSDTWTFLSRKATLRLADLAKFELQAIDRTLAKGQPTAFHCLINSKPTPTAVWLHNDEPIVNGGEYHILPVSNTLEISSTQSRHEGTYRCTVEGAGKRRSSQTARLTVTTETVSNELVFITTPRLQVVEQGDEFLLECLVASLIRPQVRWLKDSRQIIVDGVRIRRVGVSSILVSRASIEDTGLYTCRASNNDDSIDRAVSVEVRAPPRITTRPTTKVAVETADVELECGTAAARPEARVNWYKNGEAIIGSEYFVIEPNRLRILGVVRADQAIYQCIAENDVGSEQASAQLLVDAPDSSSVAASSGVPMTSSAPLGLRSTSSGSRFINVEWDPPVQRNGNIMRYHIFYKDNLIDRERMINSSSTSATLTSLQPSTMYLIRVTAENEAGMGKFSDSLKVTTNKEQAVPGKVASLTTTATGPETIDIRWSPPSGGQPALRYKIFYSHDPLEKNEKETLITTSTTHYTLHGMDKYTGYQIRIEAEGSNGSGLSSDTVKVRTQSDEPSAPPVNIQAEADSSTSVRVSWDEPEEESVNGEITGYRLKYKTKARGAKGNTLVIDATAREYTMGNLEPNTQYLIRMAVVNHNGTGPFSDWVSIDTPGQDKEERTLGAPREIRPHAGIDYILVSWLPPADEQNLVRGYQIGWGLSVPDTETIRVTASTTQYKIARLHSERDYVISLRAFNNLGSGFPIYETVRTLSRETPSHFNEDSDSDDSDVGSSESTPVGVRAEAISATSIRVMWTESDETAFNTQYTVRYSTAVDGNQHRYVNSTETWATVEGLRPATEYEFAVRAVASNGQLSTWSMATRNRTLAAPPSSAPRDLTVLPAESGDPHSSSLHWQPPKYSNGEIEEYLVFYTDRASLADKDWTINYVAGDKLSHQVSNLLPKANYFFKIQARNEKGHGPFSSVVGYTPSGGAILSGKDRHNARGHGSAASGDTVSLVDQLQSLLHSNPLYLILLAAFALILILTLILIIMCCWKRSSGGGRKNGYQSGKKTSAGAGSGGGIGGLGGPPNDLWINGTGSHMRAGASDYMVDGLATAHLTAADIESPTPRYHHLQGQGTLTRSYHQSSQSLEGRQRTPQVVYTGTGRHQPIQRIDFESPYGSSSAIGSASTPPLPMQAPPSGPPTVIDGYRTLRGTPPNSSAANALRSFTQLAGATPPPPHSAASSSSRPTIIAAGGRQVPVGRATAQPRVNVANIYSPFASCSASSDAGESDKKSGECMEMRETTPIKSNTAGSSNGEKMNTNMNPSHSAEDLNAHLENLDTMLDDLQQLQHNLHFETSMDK
Kind of experiment: co-IP; as a1, FLAG-tagged UNC-40 in HEK293 cells with co-expressed UNC-6, or UNC-6 and EVA-1; luciferase-tagged MADD-4 in the immunoprecipitate.

Results are given in words; binding and its absence hold for the method and conditions named. Binding seen in cells or lysates may run through a third protein. Binding calls can cover weak binding; strength is not graded here. Tags and fused reporters may be left off the sequences shown.

Take “HA::MADD-4B::Gaussia luciferase (C. elegans) (ligand)”: the binding result in experiment [1] and in experiment [2] was “binds” each time.
